The source of these data is the supplement of paper PMC12067093, “Discovery and optimisation of a covalent ligand for TRIM25 and its application to targeted protein ubiquitination” (Chemical Science, 2025).

Chains of the proteins cited; added tags and fusions are not shown. Lines headed by an entry give the natural chain unless they say otherwise; changes in a name come on top.
UniProt Q9BVP2: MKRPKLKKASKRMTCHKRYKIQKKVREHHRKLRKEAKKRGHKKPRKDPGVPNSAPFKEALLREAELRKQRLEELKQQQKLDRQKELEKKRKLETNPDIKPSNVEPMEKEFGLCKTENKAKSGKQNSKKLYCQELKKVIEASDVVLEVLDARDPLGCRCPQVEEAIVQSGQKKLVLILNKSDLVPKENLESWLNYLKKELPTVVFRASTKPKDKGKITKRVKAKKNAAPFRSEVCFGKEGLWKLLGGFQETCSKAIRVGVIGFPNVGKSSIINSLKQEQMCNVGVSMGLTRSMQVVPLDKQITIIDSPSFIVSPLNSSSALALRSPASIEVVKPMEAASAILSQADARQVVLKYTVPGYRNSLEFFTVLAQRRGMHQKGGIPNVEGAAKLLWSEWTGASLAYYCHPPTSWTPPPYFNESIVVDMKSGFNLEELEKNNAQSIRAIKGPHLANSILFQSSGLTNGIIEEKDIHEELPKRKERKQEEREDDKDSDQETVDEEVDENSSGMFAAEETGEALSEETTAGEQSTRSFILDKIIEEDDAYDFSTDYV
UniProt P16278: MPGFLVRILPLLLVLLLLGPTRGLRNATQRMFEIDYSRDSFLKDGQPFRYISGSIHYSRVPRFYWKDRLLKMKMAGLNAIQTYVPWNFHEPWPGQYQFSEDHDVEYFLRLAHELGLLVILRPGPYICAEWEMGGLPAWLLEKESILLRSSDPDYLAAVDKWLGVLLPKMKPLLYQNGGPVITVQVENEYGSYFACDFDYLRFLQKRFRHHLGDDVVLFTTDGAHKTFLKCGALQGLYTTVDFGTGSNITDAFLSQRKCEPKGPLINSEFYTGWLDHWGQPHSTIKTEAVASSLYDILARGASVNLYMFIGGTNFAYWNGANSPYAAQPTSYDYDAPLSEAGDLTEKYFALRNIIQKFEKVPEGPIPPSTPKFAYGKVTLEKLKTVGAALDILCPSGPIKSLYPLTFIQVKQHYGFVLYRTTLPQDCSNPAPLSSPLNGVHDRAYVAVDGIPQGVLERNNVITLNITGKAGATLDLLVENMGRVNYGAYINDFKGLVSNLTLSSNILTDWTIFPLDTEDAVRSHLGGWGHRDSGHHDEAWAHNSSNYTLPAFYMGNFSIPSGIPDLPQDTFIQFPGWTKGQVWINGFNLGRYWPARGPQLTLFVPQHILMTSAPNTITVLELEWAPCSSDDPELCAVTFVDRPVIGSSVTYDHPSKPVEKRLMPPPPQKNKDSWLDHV
UniProt Q9P107: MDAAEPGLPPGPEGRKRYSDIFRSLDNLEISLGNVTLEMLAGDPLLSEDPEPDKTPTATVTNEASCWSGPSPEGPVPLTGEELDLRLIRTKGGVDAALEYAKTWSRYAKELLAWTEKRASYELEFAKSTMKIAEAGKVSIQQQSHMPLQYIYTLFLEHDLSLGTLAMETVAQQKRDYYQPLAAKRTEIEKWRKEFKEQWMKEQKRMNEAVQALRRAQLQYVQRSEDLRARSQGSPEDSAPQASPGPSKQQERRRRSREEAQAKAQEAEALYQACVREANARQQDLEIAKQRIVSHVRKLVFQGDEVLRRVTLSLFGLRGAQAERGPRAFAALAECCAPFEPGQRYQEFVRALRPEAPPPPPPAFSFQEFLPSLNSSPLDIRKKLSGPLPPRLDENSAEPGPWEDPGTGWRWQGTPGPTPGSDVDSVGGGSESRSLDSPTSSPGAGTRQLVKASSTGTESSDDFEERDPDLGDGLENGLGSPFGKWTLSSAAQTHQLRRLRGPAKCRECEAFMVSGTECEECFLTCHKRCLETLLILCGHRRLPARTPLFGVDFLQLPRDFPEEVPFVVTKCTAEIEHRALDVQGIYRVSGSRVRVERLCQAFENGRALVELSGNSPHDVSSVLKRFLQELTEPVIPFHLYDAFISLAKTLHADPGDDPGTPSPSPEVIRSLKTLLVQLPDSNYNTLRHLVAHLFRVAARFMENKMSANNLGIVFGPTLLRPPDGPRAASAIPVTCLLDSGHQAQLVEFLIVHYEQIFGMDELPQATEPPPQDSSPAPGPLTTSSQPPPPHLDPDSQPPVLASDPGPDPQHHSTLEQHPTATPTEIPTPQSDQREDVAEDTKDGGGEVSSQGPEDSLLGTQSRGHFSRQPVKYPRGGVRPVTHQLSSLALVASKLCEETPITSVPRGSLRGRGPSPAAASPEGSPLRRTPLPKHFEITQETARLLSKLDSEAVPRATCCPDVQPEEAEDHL
UniProt O43292: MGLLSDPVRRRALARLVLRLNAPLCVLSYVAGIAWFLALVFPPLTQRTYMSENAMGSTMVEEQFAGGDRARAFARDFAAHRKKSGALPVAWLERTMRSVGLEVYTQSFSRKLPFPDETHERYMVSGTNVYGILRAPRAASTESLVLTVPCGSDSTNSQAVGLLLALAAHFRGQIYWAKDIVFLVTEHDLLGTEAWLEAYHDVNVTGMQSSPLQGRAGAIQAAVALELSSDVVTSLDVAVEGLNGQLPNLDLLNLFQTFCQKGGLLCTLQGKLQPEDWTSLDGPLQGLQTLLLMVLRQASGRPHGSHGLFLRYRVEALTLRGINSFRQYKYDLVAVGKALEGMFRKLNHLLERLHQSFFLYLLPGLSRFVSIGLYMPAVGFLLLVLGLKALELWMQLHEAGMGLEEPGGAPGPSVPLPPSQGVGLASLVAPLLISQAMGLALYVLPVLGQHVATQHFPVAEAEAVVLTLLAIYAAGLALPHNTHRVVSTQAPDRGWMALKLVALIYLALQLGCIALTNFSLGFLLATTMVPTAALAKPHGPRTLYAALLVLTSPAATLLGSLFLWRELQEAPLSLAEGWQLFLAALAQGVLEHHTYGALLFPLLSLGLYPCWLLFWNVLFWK
UniProt Q9Y223: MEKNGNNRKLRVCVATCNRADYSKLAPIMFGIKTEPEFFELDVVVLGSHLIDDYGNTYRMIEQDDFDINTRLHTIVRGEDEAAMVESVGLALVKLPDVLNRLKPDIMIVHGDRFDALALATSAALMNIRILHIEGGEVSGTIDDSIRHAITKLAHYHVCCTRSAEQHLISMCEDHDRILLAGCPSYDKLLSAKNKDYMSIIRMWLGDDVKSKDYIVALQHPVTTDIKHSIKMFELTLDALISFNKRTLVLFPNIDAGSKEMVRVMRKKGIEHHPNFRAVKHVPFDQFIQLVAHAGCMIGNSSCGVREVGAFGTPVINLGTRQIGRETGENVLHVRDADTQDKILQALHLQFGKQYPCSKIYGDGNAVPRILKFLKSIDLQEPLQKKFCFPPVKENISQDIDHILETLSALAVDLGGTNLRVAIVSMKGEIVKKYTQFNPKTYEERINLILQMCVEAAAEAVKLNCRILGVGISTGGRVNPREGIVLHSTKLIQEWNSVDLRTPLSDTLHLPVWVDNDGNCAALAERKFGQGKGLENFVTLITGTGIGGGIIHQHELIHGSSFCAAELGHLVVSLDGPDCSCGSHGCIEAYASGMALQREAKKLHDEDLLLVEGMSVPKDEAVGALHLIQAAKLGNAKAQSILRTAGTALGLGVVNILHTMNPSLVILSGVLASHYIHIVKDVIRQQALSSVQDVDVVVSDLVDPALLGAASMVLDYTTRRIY
UniProt P48060: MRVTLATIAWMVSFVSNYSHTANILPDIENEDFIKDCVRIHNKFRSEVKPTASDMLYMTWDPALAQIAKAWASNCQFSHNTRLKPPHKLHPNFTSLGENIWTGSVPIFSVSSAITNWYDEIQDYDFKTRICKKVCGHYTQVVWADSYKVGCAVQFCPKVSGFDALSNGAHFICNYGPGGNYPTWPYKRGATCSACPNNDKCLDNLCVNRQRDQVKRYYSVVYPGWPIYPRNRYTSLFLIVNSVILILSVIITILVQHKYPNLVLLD
UniProt P49915: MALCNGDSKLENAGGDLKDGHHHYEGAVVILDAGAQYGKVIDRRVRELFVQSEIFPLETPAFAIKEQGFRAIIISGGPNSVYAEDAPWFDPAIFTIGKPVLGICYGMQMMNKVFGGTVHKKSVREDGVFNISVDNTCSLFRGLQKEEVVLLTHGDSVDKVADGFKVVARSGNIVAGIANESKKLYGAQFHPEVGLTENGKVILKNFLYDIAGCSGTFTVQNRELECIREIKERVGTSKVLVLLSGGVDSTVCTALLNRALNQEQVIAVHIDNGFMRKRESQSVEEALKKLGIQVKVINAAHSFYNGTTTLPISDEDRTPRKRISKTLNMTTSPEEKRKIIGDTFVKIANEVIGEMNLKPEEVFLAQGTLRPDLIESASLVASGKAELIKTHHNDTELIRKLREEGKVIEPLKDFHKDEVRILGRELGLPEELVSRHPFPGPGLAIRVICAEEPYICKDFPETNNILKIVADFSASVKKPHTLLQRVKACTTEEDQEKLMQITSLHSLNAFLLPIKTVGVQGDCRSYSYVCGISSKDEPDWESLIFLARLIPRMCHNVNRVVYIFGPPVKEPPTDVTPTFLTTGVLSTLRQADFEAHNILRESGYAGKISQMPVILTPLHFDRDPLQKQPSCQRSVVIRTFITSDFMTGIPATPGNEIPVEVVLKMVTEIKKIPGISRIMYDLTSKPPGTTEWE
UniProt P04899, whole entry, looked up: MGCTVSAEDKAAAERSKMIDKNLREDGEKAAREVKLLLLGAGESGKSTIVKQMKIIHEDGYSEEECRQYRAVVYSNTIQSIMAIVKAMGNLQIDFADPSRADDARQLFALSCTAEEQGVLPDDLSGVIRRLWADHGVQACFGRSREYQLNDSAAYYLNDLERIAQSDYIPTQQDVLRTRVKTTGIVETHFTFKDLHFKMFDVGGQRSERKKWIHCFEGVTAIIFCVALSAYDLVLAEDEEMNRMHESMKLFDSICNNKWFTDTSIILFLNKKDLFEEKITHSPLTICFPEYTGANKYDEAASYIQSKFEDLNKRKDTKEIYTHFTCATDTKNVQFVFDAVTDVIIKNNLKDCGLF
UniProt P43304: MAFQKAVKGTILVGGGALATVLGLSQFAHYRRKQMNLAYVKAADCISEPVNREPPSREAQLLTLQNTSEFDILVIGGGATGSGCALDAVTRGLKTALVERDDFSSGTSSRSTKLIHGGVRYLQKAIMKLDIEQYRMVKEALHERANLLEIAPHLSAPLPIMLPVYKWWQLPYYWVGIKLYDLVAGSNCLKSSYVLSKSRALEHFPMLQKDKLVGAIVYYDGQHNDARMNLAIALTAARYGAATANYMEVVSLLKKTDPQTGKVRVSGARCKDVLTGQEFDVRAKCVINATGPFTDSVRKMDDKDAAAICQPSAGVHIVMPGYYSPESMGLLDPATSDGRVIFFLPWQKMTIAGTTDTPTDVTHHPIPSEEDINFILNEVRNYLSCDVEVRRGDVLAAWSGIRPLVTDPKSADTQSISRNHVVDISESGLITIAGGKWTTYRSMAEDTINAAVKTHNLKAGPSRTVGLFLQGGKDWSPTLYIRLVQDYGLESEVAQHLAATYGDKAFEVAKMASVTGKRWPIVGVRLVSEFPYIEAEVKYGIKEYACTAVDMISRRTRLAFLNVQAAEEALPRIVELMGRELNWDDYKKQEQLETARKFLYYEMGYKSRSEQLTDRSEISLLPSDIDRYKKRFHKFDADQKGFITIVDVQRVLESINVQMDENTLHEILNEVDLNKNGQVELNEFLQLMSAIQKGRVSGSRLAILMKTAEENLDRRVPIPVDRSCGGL
UniProt Q9NS18: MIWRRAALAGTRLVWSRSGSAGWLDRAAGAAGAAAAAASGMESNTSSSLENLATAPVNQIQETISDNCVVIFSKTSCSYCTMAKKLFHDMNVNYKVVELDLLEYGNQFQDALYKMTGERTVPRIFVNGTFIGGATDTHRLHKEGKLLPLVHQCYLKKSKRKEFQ
UniProt Q9NW75: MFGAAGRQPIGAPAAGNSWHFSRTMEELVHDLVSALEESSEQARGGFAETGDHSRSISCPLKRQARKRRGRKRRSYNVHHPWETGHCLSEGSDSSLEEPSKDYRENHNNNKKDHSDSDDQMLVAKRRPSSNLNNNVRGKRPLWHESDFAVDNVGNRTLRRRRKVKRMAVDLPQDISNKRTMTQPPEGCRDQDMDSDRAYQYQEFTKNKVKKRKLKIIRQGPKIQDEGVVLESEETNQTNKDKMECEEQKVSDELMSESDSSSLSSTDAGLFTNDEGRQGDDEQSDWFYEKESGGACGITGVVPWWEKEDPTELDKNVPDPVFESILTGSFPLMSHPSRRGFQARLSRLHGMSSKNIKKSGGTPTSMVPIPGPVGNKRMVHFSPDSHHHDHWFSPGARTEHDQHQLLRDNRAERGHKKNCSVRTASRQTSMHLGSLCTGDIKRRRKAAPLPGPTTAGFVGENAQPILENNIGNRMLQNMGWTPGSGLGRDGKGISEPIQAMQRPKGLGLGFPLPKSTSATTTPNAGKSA

Compound in this assay: CC1Cc2ccccc2N1C(=O)C1CCCN(C1)C(=O)CCl (mixture of isomers) [TRIM25 ligand 11 (diastereomer mixture)]
Nature of the assay: probe-labelled cysteine peptide fold change vs DMSO (competition) (log2 fold change); higher = less target engagement (more negative = stronger competition). The note with it: THP-1, incubation time: 4 h.

Some of the results follow.
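Also: competitive chemoproteomic profiling in live THP-1 cells with an iodoacetamide desthiobiotin (IA-DTB) probe, comparing probe-labelled peptide intensities in compound-treated cells against DMSO-treated controls.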

As for “GNL3_Q9BVP2_131_LYCQELK (UniProt Q9BVP2)”, the “probe-labelled cysteine peptide fold change” value was -0.0404 (10 µM) and -0.172 (50 µM).
The like results for “GLB1_P16278_393_TVGAALDILCPSGPIK (UniProt P16278)” were, in that order, -0.0917 and -0.153.
The like results for “GMIP_Q9P107_521_CRECEAFMVSGTECEECFLTCHK (UniProt Q9P107)” were, in that order, 0.0571 and 0.0807.
Turning to “GPAA1_O43292_266_GGLLCTLQGK (UniProt O43292)”, the “probe-labelled cysteine peptide fold change” value is, setting by setting: (10 µM) 0.115; (50 µM) 0.205.
The like results for “GNE_Q9Y223_183_ILLAGCPSYDK (UniProt Q9Y223)” were, in that order, 0.0878 and 0.0877.
“GMIP_Q9P107_521_ECEAFMVSGTECEECFLTCHK (UniProt Q9P107)”: the “probe-labelled cysteine peptide fold change” value (10 µM) was found to be 0.0832 and the “probe-labelled cysteine peptide fold change” value (50 µM) was 0.107.
The matching figures for “GLIPR1_P48060_192_GATCSACPNNDK (UniProt P48060)”: 0.0428 and 0.0349.
The matching figures for “GNPTG_Q9UJJ9_157_LAHVSEPSTCVYALTFETPLVCHPHALLVYPTLPEALQR (UniProt Q9UJJ9)”: 0.29 and -0.37.
The matching figures for “GMPS_P49915_523_TVGVQGDCR (UniProt P49915)”: -0.0156 and -0.139.
Turning to “GNAI2_P04899_255_LFDSICNNK (UniProt P04899)”, the “probe-labelled cysteine peptide fold change” value amounted to 0.101 (10 µM) and 0.117 (50 µM).
The like results for “GNAI2_P04899_287_ITHSPLTICFPEYTGANKYDEAASYIQSK (UniProt P04899)” were, in that order, -0.134 and -0.103.
The like results for “GPD2_P43304_188_LYDLVAGSNCLK (UniProt P43304)” were, in that order, -0.204 and 0.0592.
The like results for “GLRX2_Q9NS18_153_LLPLVHQCYLK (UniProt Q9NS18)” were, in that order, -0.00243 and -0.00654.
On to “GPATCH2_Q9NW75_188_TMTQPPEGCRDQDMDSDR (UniProt Q9NW75)”, for which the “probe-labelled cysteine peptide fold change” value runs as follows: (10 µM) -0.142; (50 µM) -0.402.
